Assay results: patent US20100215655A1 (CHENGDU KANGHONG BIOTECHNOLOGIES, published 2010)
These are yes or no findings as the source states them, for the method shown. Some binding calls cover weakened binding; strength is not graded here. Sequences can lack the tags named with a protein. Blank lines part the entries; values can stand above or below the binder they belong to.

By UniProt entry, the sequences of proteins in these tests, tags left out. Where a name states a change or a piece, a line headed by the entry shows the natural chain unless it says otherwise. Chains listed by the source or under a name are the forms on record and can include a tag or linker.
recombinant VEGF (vascular endothelial cell growth factor) (P15692, form named): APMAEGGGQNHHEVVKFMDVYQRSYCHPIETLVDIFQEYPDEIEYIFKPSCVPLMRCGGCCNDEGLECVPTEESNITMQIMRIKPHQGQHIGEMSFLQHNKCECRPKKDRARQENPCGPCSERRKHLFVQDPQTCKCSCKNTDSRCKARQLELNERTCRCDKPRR

Columns and labels:
[1] = molecular target: recombinant VEGF (vascular endothelial cell growth factor) (UniProt P15692); experiment: ELISA, VEGF coated on plate, anti-human Ig-HRP detection
[2] = molecular target: recombinant VEGF (vascular endothelial cell growth factor) (UniProt P15692); experiment: ELISA, VEGF coated on plate (FIG. 2)

binding [1]: binds
B1: FP1′ (FLTd2-KDRd3-Fc), chimeric protein of the prior art (Fc fusion, not shown: a dimerising Fc or GST)
chain: PFVEMYSEIPEIIHMTEGRELVIPCRVTSPNITVTLKKFPLDTLIPDGKRIIWDSRKGFIISNATYKEIGLLTCEATVNGHLYKTNYLTHRQTVVLSPSHGIELSVGEKLVLNCTARTELNVGIDFNWEYPSSKHQHKKLVNRDLKTQSGSEMKKFLSTLTIDGVTRSDQGLYTCAASSGLMTKKNSTFVRVHEK

binding [2]: binds
binding [1]: binds
B2: FP4′ (FLTd2-KDRd3-FLTd4-Fc) (Fc fusion, not shown: a dimerising Fc or GST)
chain: PFVEMYSEIPEIIHMTEGRELVIPCRVTSPNITVTLKKFPLDTLIPDGKRIIWDSRKGFIISNATYKEIGLLTCEATVNGHLYKTNYLTHRQTVVLSPSHGIELSVGEKLVLNCTARTELNVGIDFNWEYPSSKHQHKKLVNRDLKTQSGSEMKKFLSTLTIDGVTRSDQGLYTCAASSGLMTKKNSTFVRVHEKFITVKHRKQQVLETVAGKRSYRLSMKVKAFPSPEVVWLKDGLPATEKSARYLTRGYSLIIKDVTEEDAGNYTILLSIKQSNVFKNLTATLIVNVKP
notes: Expressed in 293 cells

binding [2]: binds
binding [1]: binds
B3: FP2′ (KDRd1-FLTd2-KDRd3-Fc) (Fc fusion, not shown: a dimerising Fc or GST)
chain: PRLSIQKDILTIKANTTLQITCRGQRDLDWLWPNNQSGSEQRVEVTECSDGLFCKTLTIPKVIGNDTGAYKCFYRETDLASVIYVYPFVEMYSEIPEIIHMTEGRELVIPCRVTSPNITVTLKKFPLDTLIPDGKRIIWDSRKGFIISNATYKEIGLLTCEATVNGHLYKTNYLTHRQTVVLSPSHGIELSVGEKLVLNCTARTELNVGIDFNWEYPSSKHQHKKLVNRDLKTQSGSEMKKFLSTLTIDGVTRSDQGLYTCAASSGLMTKKNSTFVRVHEK
notes: Expressed in 293 cells
